Experimental data published in publication doi:10.64898/2025.12.03.691809.
These are yes or no findings as the source states them, for the method shown. For some of these results: In cells and extracts the contact can be indirect. Some results given as binding are weak or reduced against the parent protein; the word gives no strength.

Protein sequences, listed by entry. Tags and fused reporters are not part of them. Lines headed by an entry give the natural chain unless they say otherwise; changes in a name come on top. Chains listed by the source or under a name are the forms on record and can include a tag or linker. Residues count along the entry.
UniProt Q9HD67: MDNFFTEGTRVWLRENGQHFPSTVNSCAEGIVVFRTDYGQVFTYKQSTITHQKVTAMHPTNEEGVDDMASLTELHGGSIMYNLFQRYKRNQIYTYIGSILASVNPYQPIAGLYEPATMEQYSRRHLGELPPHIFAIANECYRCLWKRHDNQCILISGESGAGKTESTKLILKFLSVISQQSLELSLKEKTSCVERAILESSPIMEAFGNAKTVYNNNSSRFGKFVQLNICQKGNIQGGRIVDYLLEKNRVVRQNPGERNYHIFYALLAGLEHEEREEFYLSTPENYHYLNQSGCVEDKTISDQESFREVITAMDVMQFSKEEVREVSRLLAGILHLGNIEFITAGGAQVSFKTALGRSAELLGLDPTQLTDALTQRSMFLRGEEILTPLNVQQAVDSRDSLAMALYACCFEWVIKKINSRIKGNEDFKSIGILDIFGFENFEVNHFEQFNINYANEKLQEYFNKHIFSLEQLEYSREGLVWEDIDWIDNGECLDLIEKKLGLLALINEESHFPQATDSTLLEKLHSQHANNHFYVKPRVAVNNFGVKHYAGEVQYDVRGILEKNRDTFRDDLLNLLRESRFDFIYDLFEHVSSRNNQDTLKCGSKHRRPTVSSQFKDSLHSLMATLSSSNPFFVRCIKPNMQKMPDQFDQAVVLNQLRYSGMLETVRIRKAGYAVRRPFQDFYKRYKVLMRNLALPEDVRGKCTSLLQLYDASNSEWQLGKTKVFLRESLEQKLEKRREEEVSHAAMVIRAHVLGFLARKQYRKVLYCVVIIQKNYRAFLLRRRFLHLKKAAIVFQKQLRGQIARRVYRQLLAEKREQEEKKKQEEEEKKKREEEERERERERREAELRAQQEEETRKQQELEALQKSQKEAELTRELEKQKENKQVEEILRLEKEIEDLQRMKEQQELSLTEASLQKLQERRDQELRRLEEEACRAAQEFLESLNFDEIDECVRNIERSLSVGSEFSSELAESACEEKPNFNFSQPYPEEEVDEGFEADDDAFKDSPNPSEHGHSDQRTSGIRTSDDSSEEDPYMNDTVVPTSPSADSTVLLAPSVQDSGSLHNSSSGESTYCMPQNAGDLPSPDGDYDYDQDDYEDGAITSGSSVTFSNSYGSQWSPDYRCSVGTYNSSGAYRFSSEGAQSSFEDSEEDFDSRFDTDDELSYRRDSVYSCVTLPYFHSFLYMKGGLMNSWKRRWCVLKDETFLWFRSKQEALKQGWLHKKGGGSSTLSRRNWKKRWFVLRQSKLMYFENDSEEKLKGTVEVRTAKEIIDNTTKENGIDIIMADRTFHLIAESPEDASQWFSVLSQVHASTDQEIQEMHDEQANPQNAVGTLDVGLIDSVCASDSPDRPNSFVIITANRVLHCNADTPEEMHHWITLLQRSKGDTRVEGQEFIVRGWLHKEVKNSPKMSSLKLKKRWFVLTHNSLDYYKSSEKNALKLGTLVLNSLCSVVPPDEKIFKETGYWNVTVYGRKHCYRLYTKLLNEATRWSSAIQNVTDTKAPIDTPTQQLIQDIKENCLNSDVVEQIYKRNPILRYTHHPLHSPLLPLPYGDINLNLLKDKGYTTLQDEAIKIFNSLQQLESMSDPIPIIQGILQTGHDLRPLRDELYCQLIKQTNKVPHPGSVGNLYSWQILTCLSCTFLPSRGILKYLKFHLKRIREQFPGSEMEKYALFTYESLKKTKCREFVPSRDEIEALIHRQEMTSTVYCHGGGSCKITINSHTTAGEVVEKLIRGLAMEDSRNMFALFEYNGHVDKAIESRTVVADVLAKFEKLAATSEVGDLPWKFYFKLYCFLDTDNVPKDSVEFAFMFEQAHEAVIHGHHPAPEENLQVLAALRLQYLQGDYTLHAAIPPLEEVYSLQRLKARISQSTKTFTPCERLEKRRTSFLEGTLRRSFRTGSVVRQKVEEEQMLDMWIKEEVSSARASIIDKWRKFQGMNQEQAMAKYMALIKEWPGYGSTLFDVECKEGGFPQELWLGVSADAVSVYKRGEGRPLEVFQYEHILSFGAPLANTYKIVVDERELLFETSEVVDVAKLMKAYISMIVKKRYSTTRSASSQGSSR
GFP-tagged MYO10 motor domain: residues 1-741 of Q9HD67
UniProt P79114, residues 2-948: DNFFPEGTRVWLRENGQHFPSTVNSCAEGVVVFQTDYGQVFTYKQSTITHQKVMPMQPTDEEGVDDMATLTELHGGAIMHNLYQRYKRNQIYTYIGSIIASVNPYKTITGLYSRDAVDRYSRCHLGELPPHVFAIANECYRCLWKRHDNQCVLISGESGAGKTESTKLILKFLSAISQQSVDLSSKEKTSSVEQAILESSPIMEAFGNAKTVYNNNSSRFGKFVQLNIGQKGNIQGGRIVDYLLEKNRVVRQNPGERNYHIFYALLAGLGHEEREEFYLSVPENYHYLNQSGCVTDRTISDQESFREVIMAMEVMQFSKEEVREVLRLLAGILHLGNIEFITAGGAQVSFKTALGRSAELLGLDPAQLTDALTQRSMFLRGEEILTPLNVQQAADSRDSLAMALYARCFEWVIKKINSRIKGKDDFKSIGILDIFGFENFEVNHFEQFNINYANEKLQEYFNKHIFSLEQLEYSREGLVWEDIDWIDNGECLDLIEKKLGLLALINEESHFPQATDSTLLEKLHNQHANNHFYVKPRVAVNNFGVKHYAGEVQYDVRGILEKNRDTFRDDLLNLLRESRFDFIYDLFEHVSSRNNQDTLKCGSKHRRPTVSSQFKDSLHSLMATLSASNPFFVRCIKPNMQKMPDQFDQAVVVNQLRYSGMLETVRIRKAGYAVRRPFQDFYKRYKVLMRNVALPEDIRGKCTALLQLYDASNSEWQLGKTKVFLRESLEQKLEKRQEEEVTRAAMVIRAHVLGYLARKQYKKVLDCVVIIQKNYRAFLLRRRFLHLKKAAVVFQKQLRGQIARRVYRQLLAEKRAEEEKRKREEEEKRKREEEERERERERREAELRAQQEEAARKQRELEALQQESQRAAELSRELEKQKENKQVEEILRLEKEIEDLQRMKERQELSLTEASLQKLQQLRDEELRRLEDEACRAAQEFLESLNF
UniProt P50990: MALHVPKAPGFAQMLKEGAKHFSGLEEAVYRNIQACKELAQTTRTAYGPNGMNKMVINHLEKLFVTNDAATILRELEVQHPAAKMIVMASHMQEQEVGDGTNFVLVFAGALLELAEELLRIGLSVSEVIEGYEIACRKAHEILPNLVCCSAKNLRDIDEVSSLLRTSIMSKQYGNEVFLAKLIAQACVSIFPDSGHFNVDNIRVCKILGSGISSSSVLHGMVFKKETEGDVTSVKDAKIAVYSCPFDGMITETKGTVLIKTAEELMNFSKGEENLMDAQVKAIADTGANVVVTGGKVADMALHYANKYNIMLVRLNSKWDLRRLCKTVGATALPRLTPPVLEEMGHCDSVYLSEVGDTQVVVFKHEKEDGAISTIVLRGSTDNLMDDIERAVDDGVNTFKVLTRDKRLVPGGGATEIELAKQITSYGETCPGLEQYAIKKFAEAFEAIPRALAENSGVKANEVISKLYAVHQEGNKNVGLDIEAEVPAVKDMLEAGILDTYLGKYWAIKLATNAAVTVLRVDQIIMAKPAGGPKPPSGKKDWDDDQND

How the values were obtained:
MYO10-mScarlet = MYO10-mScarlet (UniProt Q9HD67); assay: FRET or BRET
MYO10-HMM (bovine) = MYO10-HMM (bovine) (UniProt P79114); assay: co-IP
[1] = target: GFP-tagged full-length MYO10 (human) (UniProt Q9HD67); assay: co-IP
[2] = target: GFP-tagged MYO10 motor domain (human) (UniProt Q9HD67); assay: pull-down

## C-terminally tagged CCT8 (from UniProt P50990 1-548)
MYO10-mScarlet
  binding: binds

## Endogenous CCT8 (from UniProt P50990 1-548)
MYO10-HMM (bovine)
  binding: binds
[1]
  binding: binds

## recombinant GST-tagged CCT8 (from UniProt P50990 1-548)
[2]
  binding: binds
